# According to the supplement of paper PMC10373366:
# The list shows a part of the results. Most values come without repeats; read them as rough.
# Assays:
# A2780 = assay: cell growth inhibition ratio vs untreated control (CCK8); higher = stronger inhibition of cell viability; conditions: 10 µM; 48 h
# Procedure: (§1)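 Natural product library (Topscience) screened at 10 µM final concentration for 48 h on ovarian cancer A2780 cells and patient-derived ovarian cancer cells (PDC) in 96-well plates; viability read by CCK8 and reported as inhibition ratio (%) relative to untreated control. Single-dose primary screen.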
# [1] = test system: patient-derived ovarian cancer cells (PDC); assay: as above; conditions: 10 µM; 48 h
# Procedure: as §1
Structure (SMILES),cell growth inhibition ratio (A2780) [%],cell growth inhibition ratio [1] [%]
O=C1OC(=O)[C@H]2[C@@H]1[C@@H]1CC[C@H]2O1 [Norcantharidin],0.043,6.21
NC(=O)c1ccc[n+]([C@@H]2O[C@H](COP(=O)([O-])OP(=O)(O)OC[C@H]3O[C@@H](n4cnc5c(N)ncnc54)[C@H](O)[C@@H]3O)[C@@H](O)[C@H]2O)c1 [Cozymasei(NAD+)],-1.94,-16.8
C[C@@]12CC[C@@H]3[C@@](CC[C@H]4[C@@]3(C)CCC[C@@]4(C)C(=O)O)(CC1=O)C2 [Isosteviol],0.972,-6.16
COc1ccccc1O [Guaiacol],12.5,0.712
NCCCC(=O)O [4-Aminobutyric acid],-9.54,0.231
CC1(C)CCC[C@](C)([C@H]2CC[C@]3(C)[C@@H]2[C@H](O)C[C@@H]2[C@@]4(C)CC[C@H](O)C(C)(C)[C@@H]4[C@H](O)C[C@]23C)O1 [Panaxtriol],1.19,-4.4
OC[C@@H](O)[C@@H](O[C@H]1O[C@H](CO)[C@@H](O)[C@H](O)[C@H]1O)[C@H](O)[C@@H](O)CO [Maltitol],-6.44,7.4
N[C@@H](Cc1c[nH]c2ccccc12)C(=O)O [L-Tryptophan],12.2,7.42
CC[C@H]1OC(=O)C[C@@H](O)[C@H](C)[C@@H](O[C@@H]2O[C@H](C)[C@@H](O[C@H]3C[C@@](C)(O)[C@@H](O)[C@H](C)O3)[C@H](N(C)C)[C@H]2O)[C@@H](CC=O)C[C@@H](C)C(=O)/C=C/C(C)=C/[C@@H]1CO[C@@H]1O[C@H](C)[C@@H](O)[C@@H](OC)[C@H]1OC [Tylosin],-5.31,-4.99
CC(C)C(C)C(O)C(O)C(C)C1CCC2C3COC(=O)C4CC(O)C(O)CC4(C)C3CCC12C (configuration not stated) [Brassinolide],4.78,-14.7
CC[C@@]1(O)C(=O)OCc2c1cc1n(c2=O)Cc2cc3cc(O)ccc3nc2-1 [Hydroxy Camptothecine],89.9,85.4
CC(C)(O)CC[C@@H](O)[C@](C)(O)[C@H]1CC[C@@]2(O)C3=CC(=O)[C@@H]4C[C@@H](O)[C@@H](O)C[C@]4(C)[C@H]3CC[C@]12C [Ecdysterone],5.48,-10.5
COc1c(O)cc(O)c2c(=O)cc(-c3ccccc3)oc12 [Wogonin],59.9,11.9
CC(=O)[C@H]1CC[C@H]2[C@@H]3CC=C4C[C@@H](O)CC[C@]4(C)[C@H]3CC[C@]12C [Pregnenolone],21.4,32.6
"COc1ccc(-c2coc3cc(OC)ccc3c2=O)cc1 [4',7-Dimethoxyisoflavone]",13,17.9
Nc1ncnc2c1ncn2C1CC(O)C(CO)O1 (configuration not stated) [2'-Deoxyadenosine monohydrate],4.41,-4.4
O=C(O)/C=C/c1ccc(O)cc1 [p-Coumaric acid],-0.167,-6.59
O=C(O)c1cccnc1 [Nicotinic acid],7.43,-9.64
CN1CCC[C@H]1c1cccnc1 [Nicotine],1.42,10.1
O=C([O-])c1cc(=O)[nH]c(=O)[nH]1.O=C([O-])c1cc(=O)[nH]c(=O)[nH]1.[Zn+2],21.3,2.24
C[C@@H]1C(=O)O[C@H]2C[C@@]34[C@H]5C[C@@H](C(C)(C)C)[C@]36[C@@H](OC(=O)[C@@H]6O)O[C@@]4(C(=O)O5)[C@]21O [Ginkgolide A],29.4,-5.84
O=C(O)[C@H]1O[C@@H](Oc2cc3oc(-c4ccccc4)cc(=O)c3c(O)c2O)[C@H](O)[C@@H](O)[C@@H]1O [Baicalin],11.7,-5.71
CN1CCc2cc3c(cc2C(=O)Cc2ccc4c(c2C1)OCO4)OCO3 [Protopine],20.1,8.19
O=C(O)[C@]1(O)C[C@@H](O)[C@@H](O)[C@H](O)C1 [Quinic acid],-4,-2.23
COc1ccc(-c2oc3c(CC=C(C)C)c(O[C@@H]4C[C@H](CO)[C@@H](O)[C@H](O)[C@H]4O)cc(O)c3c(=O)c2O[C@@H]2O[C@@H](C)[C@H](O)[C@@H](O)[C@H]2O[C@@H]2O[C@H](CO)[C@@H](O)[C@H](O)[C@H]2O)cc1 [Epimedin A],8.93,0.484
O=C(O)c1cc(O)c2c(c1)[C@H]([C@H]1c3cc(C(=O)O)cc(O)c3C(=O)c3c(O[C@@H]4O[C@H](CO)[C@@H](O)[C@H](O)[C@H]4O)cccc31)c1cccc(O[C@@H]3O[C@H](CO)[C@@H](O)[C@H](O)[C@H]3O)c1C2=O [Sennoside A],-3.96,-10.9

# Grouped by structure, the entries above containing an NH in an aromatic ring (2)
Structure (SMILES),cell growth inhibition ratio (A2780) [%],cell growth inhibition ratio [1] [%]
N[C@@H](Cc1c[nH]c2ccccc12)C(=O)O [L-Tryptophan],12.2,7.42
O=C([O-])c1cc(=O)[nH]c(=O)[nH]1.O=C([O-])c1cc(=O)[nH]c(=O)[nH]1.[Zn+2],21.3,2.24

# Further structures follow:

Structure (SMILES),cell growth inhibition ratio (A2780) [%],cell growth inhibition ratio [1] [%]
CC(C)=CCC[C@](C)(O[C@@H]1O[C@H](CO)[C@@H](O)[C@H](O)[C@H]1O)[C@H]1CC[C@]2(C)[C@@H]1[C@H](O)C[C@@H]1[C@@]3(C)CC[C@H](O)C(C)(C)[C@@H]3[C@@H](O[C@@H]3O[C@H](CO)[C@@H](O)[C@H](O)[C@H]3O[C@@H]3OC[C@@H](O)[C@H](O)[C@H]3O)C[C@]12C [Notoginsenoside R1],1.52,7.55
CNC[C@@H](O)c1ccc(O)c(O)c1 [L-Adrenaline],-2.33,11.4
O=c1c2ccccc2oc2ccccc12 [Xanthone],5.38,-3.85
O=C(O)c1ccc(O)c(O)c1 [Protocatechuic acid],4.08,6.63
Oc1cc(O)c2c(c1)O[C@H](c1cc(O)c(O)c(O)c1)[C@H](O)C2 [Epigallocatechin],3.31,8.86
O=C(/C=C/c1ccc(O)c(O)c1)O[C@H](Cc1ccc(O)c(O)c1)C(=O)O [Rosmarinic acid],84.1,63.4
CC1=C[C@]2(O)O[C@@]3(CC2=C(C)C)[C@@H](C)CC[C@@H]13 [Curcumenol],3.71,-0.147
O=C1C(c2[nH]c3ccccc3c2O)=Nc2ccccc21 [Indigo],3.61,19.2
COc1cc(OC)c2ccc(=O)oc2c1 [Citropten],10.9,-15.6
COc1cc(C2Oc3cc([C@H]4Oc5cc(O)cc(O)c5C(=O)[C@@H]4O)ccc3OC2CO)ccc1O (some centres not stated) [Silymarin],52.1,21.2
CC(=O)O[C@@]12CO[C@@H]1C[C@H](O)[C@@]1(C)C(=O)[C@H](O)C3=C(C)[C@@H](OC(=O)[C@H](O)[C@@H](NC(=O)OC(C)(C)C)c4ccccc4)C[C@@](O)([C@@H](OC(=O)c4ccccc4)[C@H]21)C3(C)C [Docetaxel trihydrate],82.9,58.7
NC(=O)NCCC[C@H](N)C(=O)O [Citrulline],5.98,-7.92
C=C1CC[C@@H]2[C@](C)(CO)[C@H](O)CC[C@@]2(C)[C@@H]1C/C=C1/C(=O)OC[C@H]1O [Andrographolide],25.2,-18.1
C=C[C@](C)(O)CC[C@@H]1[C@@]2(C)CCCC(C)(C)[C@@H]2CC[C@@]1(C)O [Sclareol],2.75,-9.23
Nc1nc(=O)c2c([nH]1)NCC(CNc1ccc(C(=O)N[C@@H](CCC(=O)O)C(=O)O)cc1)N2C=O (some centres not stated) [Calcium folinate],12.1,-2.92
COc1ccc(C2CC(=O)c3c(O)cc(OC4OC(COC5OC(C)C(O)C(O)C5O)C(O)C(O)C4O)cc3O2)cc1OC (configuration not stated) [Methyl hesperidin],6.47,9.83
COc1cc(/C=C/C(=O)O[C@H]2CC[C@]34C[C@]35CC[C@]3(C)[C@@H]([C@H](C)CCC=C(C)C)CC[C@@]3(C)[C@@H]5CC[C@H]4C2(C)C)ccc1O [Gamma-Oryzanol],9.42,-7.49
O=C(O[C@@H]1O[C@@H]2COC(=O)c3cc(O)c(O)c(O)c3-c3c(cc(O)c(O)c3O)C(=O)O[C@H]([C@H]1O)[C@@H]2O)c1cc(O)c(O)c(O)c1 [Corilagin],9.5,3.77
C[C@@H]1O[C@@H](O[C@H]2[C@H](OC(=O)[C@]34CCC(C)(C)C[C@H]3C3=CC[C@@H]5[C@@]6(C)C[C@H](O)[C@H](O[C@@H]7O[C@H](CO)[C@@H](O)[C@H](O)[C@H]7O)[C@@](C)(CO)[C@@H]6CC[C@@]5(C)[C@]3(C)CC4)O[C@H](CO)[C@@H](O)[C@@H]2O)[C@H](O)[C@H](O)[C@H]1O[C@@H]1OC[C@@H](O)[C@H](O)[C@H]1O [Polygalasaponin F],8.7,-4.9
OC[C@H]1NC[C@H](O)[C@@H](O)[C@@H]1O [1-Deoxynojirimycin],6.4,-1.22
O=c1c2ccccc2nc2n1CCc1c-2[nH]c2ccccc12 [Rutaecarpine],12.9,18.4
C[C@H](CCC(=O)O)[C@H]1CC[C@H]2[C@@H]3[C@H](O)C[C@@H]4C[C@H](O)CC[C@]4(C)[C@H]3CC[C@]12C [Chenodeoxycholic acid],9.13,11.4
C[C@H]1[C@H](C)CC[C@]2(C(=O)O)CC[C@]3(C)C(=CC[C@@H]4[C@@]5(C)C[C@@H](O)[C@H](O)C(C)(C)[C@@H]5CC[C@]43C)[C@H]12 [Corosolic acid],21.8,15
CC(C)=CCC[C@@](O)(CO[C@@H]1O[C@H](CO)[C@@H](O)[C@H](O)[C@H]1O)[C@H]1CC[C@]2(C)[C@@H]1CC[C@@H]1[C@@]3(C=O)CC[C@H](O[C@@H]4OC[C@H](O)[C@H](O[C@@H]5OC[C@@H](O)[C@H](O)[C@H]5O)[C@H]4O[C@@H]4O[C@@H](C)[C@H](O)[C@@H](O)[C@H]4O)C(C)(C)[C@@H]3CC[C@]12C [Gypenoside XLIX],-6.06,14.9
CC(C)CCCCC(=O)N[C@@H](CCN)C(=O)N[C@@H](CN[C@@H](CCN)C(=O)N[C@H]1CCNC(=O)[C@H]([C@@H](C)O)NC(=O)[C@H](CCN)NC(=O)[C@H](CCN)NC(=O)[C@H](CC(C)C)NC(=O)[C@@H](CC(C)C)NC(=O)[C@H](CCN)NC1=O)[C@@H](C)O.CCC(C)CCCCC(=O)N[C@@H](CCN)C(=O)N[C@@H](CN[C@@H](CCN)C(=O)N[C@H]1CCNC(=O)[C@H]([C@@H](C)O)NC(=O)[C@H](CCN)NC(=O)[C@H](CCN)NC(=O)[C@H](CC(C)C)NC(=O)[C@@H](CC(C)C)NC(=O)[C@H](CCN)NC1=O)[C@@H](C)O (some centres not stated) [Colistin sulfate],-4.58,-10.1
